# Assay results taken from PubChem BioAssay AID248 (DTP/NCI, 2004).
# The list shows only some results of the screen, not a fair sample: it gathers tests that were run many times, whatever their T/C, doses with no T/C, and many T/C values between a quarter and a half above the control. Other doses and runs of a compound stand elsewhere. T/C gives the treated animals as a percentage of the vehicle group. Some doses have a count of surviving animals in place of a T/C: the source holds a T/C of zero for them, seemingly a mark for toxic or unscored doses. Some survivor counts are full or nearly so, which does not show that the dose was tolerated: survival well below the control is almost never listed, so the zero probably covers shortened survival too. Counts of survivors are from the toxicity check (mostly the fifth day) where no day follows; animals may have died later. Schedule codes are those of the source, taken here to give the interval after Q, in days (D) or hours (H), and the number of doses after X. Some schedules carry Z or #; the key to these is not given. Some doses were run more than once; the values are given in rising order. For survival time, the PubChem record calls one and a half times the control and up active, and a quarter to a half above the control has no call in these data; cut-offs in other NCI protocols can differ. Brackets with × give the number of equal values in this list. Some T/C values carry the count of animals alive at the toxicity check (mostly the fifth day); without a count, all were alive then.
# System: L1210 leukemia ip in BDF1 mice, survival T/C
# Assay: NCI In Vivo Anticancer Drug Screen. Data for tumor model L1210 Leukemia (intraperitoneal) in B6D2F1 (BDF1) mice
# Settings: higher T/C = longer survival
# [1] = T/C endpoint: mean survival time, dose: 600.0 mg/kg/injection, schedule: Q01DX009 (ip), vehicle: saline
# [2] = T/C endpoint: mean survival time, dose: 100.0 mg/kg/injection, schedule: Q04DX003 (ip), vehicle: Klucel (hydroxypropylcellulose) (HPC)
# [3] = T/C endpoint: mean survival time, dose: 200.0 mg/kg/injection, schedule: Q04DX003 (ip), vehicle: Klucel (hydroxypropylcellulose) (HPC)
# [4] = T/C endpoint: mean survival time, dose: 400.0 mg/kg/injection, schedule: Q04DX003 (ip), vehicle: Klucel (hydroxypropylcellulose) (HPC)
# [5] = T/C endpoint: mean survival time, dose: 400.0 mg/kg/injection, schedule: Q01DX001 (ip), vehicle: saline with Tween-80
smiles,measurement,setting,value
CS(=O)(=O)OCC(=O)NCCNC(=O)COS(C)(=O)=O,T/C,"T/C endpoint: mean survival time, dose: 66.6 mg/kg/injection, schedule: Q01DX Z (ip), vehicle: carboxymethylcellulose (CMC)",130 % of control
same,T/C,"T/C endpoint: mean survival time, dose: 70.0 mg/kg/injection, schedule: Q01DX Z (ip), vehicle: carboxymethylcellulose (CMC)",139 % of control
same,T/C,"T/C endpoint: mean survival time, dose: 80.0 mg/kg/injection, schedule: Q01DX009 (ip), vehicle: saline",139 % of control
same,T/C,"T/C endpoint: mean survival time, dose: 100.0 mg/kg/injection, schedule: Q01DX015 (ip), vehicle: saline",127 % of control
same,T/C,"T/C endpoint: mean survival time, dose: 100.0 mg/kg/injection, schedule: Q01DX Z (ip), vehicle: carboxymethylcellulose (CMC)",132 % of control
same,T/C,"T/C endpoint: mean survival time, dose: 120.0 mg/kg/injection, schedule: Q01DX009 (ip), vehicle: saline",141 % of control
same,T/C,"T/C endpoint: mean survival time, dose: 180.0 mg/kg/injection, schedule: Q01DX009 (ip), vehicle: saline",145 % of control
same,T/C,"T/C endpoint: mean survival time, dose: 200.0 mg/kg/injection, schedule: Q01DX Z (ip), vehicle: saline",135 % of control
same,T/C,"T/C endpoint: mean survival time, dose: 400.0 mg/kg/injection, schedule: Q01DX015 (ip), vehicle: saline",132 % of control
same,T/C,"T/C endpoint: mean survival time, dose: 400.0 mg/kg/injection, schedule: Q04DX003 (ip), vehicle: carboxymethylcellulose (CMC)",143 % of control
same,T/C,[1],136 % of control [5 of 6 alive]
same,survivor count,[1],1 of 6 and 2 of 6
same,survivor count,"T/C endpoint: mean survival time, dose: 600.0 mg/kg/injection, schedule: Q01DX Z (ip), vehicle: carboxymethylcellulose (CMC)",1 of 6
same,T/C,"T/C endpoint: mean survival time, dose: 600.0 mg/kg/injection, schedule: Q04DX003 (ip), vehicle: saline",133 % of control [5 of 6 alive]
same,survivor count,"T/C endpoint: mean survival time, dose: 800.0 mg/kg/injection, schedule: Q01DX009 (ip), vehicle: saline",1 of 6
same,T/C,"T/C endpoint: mean survival time, dose: 1200.0 mg/kg/injection, schedule: Q04DX003 (ip), vehicle: saline",136 % of control
ClC(Cl)(Cl)c1nc2nccnc2[nH]1,survivor count,"T/C endpoint: mean survival time, dose: 200.0 mg/kg/injection, schedule: Q04DX003 (ip), vehicle: saline sonified",4 of 6
same,survivor count,"T/C endpoint: mean survival time, dose: 400.0 mg/kg/injection, schedule: Q04DX003 (ip), vehicle: saline sonified",2 of 6
CCCCSP(=O)(Cc1ccccc1)SCCCC,survivor count,[2],0 of 6
same,survivor count,[3],0 of 6
same,survivor count,[4],0 of 6
CCOC(=O)NCC(CCCCN(C)C)(c1cccc2ccccc12)C(C)CC (stereo not given),survivor count,"T/C endpoint: mean survival time, dose: 100.0 mg/kg/injection, schedule: Q01DX009 (ip), vehicle: saline",1 of 6
same,survivor count,"T/C endpoint: mean survival time, dose: 200.0 mg/kg/injection, schedule: Q01DX009 (ip), vehicle: saline",0 of 6
same,survivor count,"T/C endpoint: mean survival time, dose: 400.0 mg/kg/injection, schedule: Q01DX009 (ip), vehicle: saline",0 of 6
Nc1nc([Se]Cc2ccc([N+](=O)[O-])cc2)c2ncn(C3OC(CO)C(O)C3O)c2n1 (stereo not given),T/C,"T/C endpoint: mean survival time, dose: 100.0 mg/kg/injection, schedule: Q01DX005 (ip), vehicle: saline",147 % of control [4 of 6 alive]
same,survivor count,"T/C endpoint: mean survival time, dose: 200.0 mg/kg/injection, schedule: Q01DX005 (ip), vehicle: saline",2 of 6
CC1(N(O)C(=O)NC2CCCCC2)CCCCC1,survivor count,[5],1 of 6
COc1ccc2c(c1OC)C13CCCCC1C(C2)[N+](C)(C)CC3 (stereo not given),survivor count,"T/C endpoint: mean survival time, dose: 100.0 mg/kg/injection, schedule: Q01DX009 (ip), vehicle: Klucel (hydroxypropylcellulose) (HPC)",0 of 6
same,survivor count,[3],6 of 6
same,survivor count,[4],6 of 6
CCN(CC)CCNCc1ccccc1,survivor count,"T/C endpoint: mean survival time, dose: 150.0 mg/kg/injection, schedule: Q04DX003 (ip), vehicle: saline",3 of 6
same,survivor count,"T/C endpoint: mean survival time, dose: 300.0 mg/kg/injection, schedule: Q04DX003 (ip), vehicle: saline",0 of 6
COc1ccc(-c2c(O)c3cccc(-c4ccccc4)c3oc2=O)cc1,survivor count,"T/C endpoint: mean survival time, dose: 400.0 mg/kg/injection, schedule: Q04DX003 (ip), vehicle: saline",0 of 3
NC(N)=N/N=C(/c1ccccc1)c1ccccc1F,survivor count,"T/C endpoint: mean survival time, dose: 960.0 mg/kg/injection, schedule: Q01DX Z (oral), vehicle: saline",6 of 6
O=C(N/N=C\c1cc(Cl)cc(Cl)c1O)c1cccnc1,survivor count,"T/C endpoint: mean survival time, dose: 400.0 mg/kg/injection, schedule: Q01DX009 (ip), vehicle: Klucel (hydroxypropylcellulose) (HPC)",3 of 6
CCCCCCCC1CCC(N)CC1 (stereo not given),survivor count,[2],3 of 6
same,survivor count,[3],2 of 6
same,survivor count,[4],1 of 6
CC[S][Hg][Cl],survivor count,"T/C endpoint: mean survival time, dose: 12.0 mg/kg/injection, schedule: Q01DX009 (ip), vehicle: saline with Tween-80",4 of 6
same,survivor count,"T/C endpoint: mean survival time, dose: 25.0 mg/kg/injection, schedule: Q04DX003 (ip), vehicle: saline with Tween-80",1 of 6
same,survivor count,"T/C endpoint: mean survival time, dose: 50.0 mg/kg/injection, schedule: Q04DX003 (ip), vehicle: saline with Tween-80",0 of 6
same,survivor count,"T/C endpoint: mean survival time, dose: 100.0 mg/kg/injection, schedule: Q04DX003 (ip), vehicle: saline with Tween-80",0 of 6
same,survivor count,"T/C endpoint: mean survival time, dose: 200.0 mg/kg/injection, schedule: Q04DX003 (ip), vehicle: saline with Tween-80",0 of 6
same,survivor count,"T/C endpoint: mean survival time, dose: 400.0 mg/kg/injection, schedule: Q04DX003 (ip), vehicle: saline with Tween-80",0 of 6
Cc1c(-c2ccccc2Br)nc2ccccc2c1C(=O)O,survivor count,"T/C endpoint: mean survival time, dose: 400.0 mg/kg/injection, schedule: Q01DX001 (ip), vehicle: saline",3 of 6
C=CCc1cc(Cl)ccc1OCC(=O)O,survivor count,"T/C endpoint: mean survival time, dose: 400.0 mg/kg/injection, schedule: Q01DX009 (ip), vehicle: gum acacia",0 of 6
NC(N)=N/N=C/N1CCCCC1,survivor count,"T/C endpoint: mean survival time, dose: 960.0 mg/kg/injection, schedule: Q01DX Z (ip), vehicle: methylcellulose (MC)",1 of 6
CCCCCCCCCCCCCCC(F)C(=O)OC (stereo not given),survivor count,"T/C endpoint: mean survival time, dose: 200.0 mg/kg/injection, schedule: Q01DX009 (sc), vehicle: olive oil, sesame oil, peanut oil",4 of 6
same,survivor count,"T/C endpoint: mean survival time, dose: 400.0 mg/kg/injection, schedule: Q01DX009 (sc), vehicle: olive oil, sesame oil, peanut oil",6 of 6
O=C1C(N2CCCCC2)=C(N2CC2)C(=O)C(N2CCCCC2)=C1N1CC1,T/C,"T/C endpoint: mean survival time, dose: 25.0 mg/kg/injection, schedule: Q04DX003 (ip), vehicle: saline","102, 115, 119 % of control (2×)"
same,T/C,"T/C endpoint: mean survival time, dose: 35.0 mg/kg/injection, schedule: Q04DX003 (ip), vehicle: saline",126 % of control
same,survivor count,"T/C endpoint: mean survival time, dose: 55.0 mg/kg/injection, schedule: Q04DX003 (ip), vehicle: saline",6 of 6
same,survivor count,"T/C endpoint: mean survival time, dose: 80.0 mg/kg/injection, schedule: Q04DX003 (ip), vehicle: saline",1 of 6
Brc1cccc[n+]1-c1cccc(-c2cccc(-[n+]3ccccc3Br)c2)c1,survivor count,"T/C endpoint: mean survival time, dose: 37.5 mg/kg/injection, schedule: Q01DX001 (ip), vehicle: other",1 of 6
same,survivor count,"T/C endpoint: mean survival time, dose: 75.0 mg/kg/injection, schedule: Q01DX001 (ip), vehicle: other",1 of 6
same,survivor count,"T/C endpoint: mean survival time, dose: 150.0 mg/kg/injection, schedule: Q01DX001 (ip), vehicle: other",1 of 6
same,survivor count,"T/C endpoint: mean survival time, dose: 300.0 mg/kg/injection, schedule: Q01DX001 (ip), vehicle: other",0 of 6
CC(=O)O[C@]1(C(C)=O)CC[C@H]2[C@@H]3C[C@H](C)C4=CC(=O)CC[C@]4(C)[C@H]3CC[C@@]21C,survivor count,"T/C endpoint: median survival time, dose: 128.0 mg/kg/injection, schedule: Q03HX024 (ip), vehicle: Klucel (hydroxypropylcellulose) (HPC)",4 of 10
same,survivor count,"T/C endpoint: median survival time, dose: 256.0 mg/kg/injection, schedule: Q03HX008 (ip), vehicle: Klucel (hydroxypropylcellulose) (HPC)",6 of 10
same,survivor count,"T/C endpoint: median survival time, dose: 256.0 mg/kg/injection, schedule: Q03HX016 (ip), vehicle: Klucel (hydroxypropylcellulose) (HPC)",0 of 10
same,survivor count,"T/C endpoint: median survival time, dose: 256.0 mg/kg/injection, schedule: Q03HX024 (ip), vehicle: Klucel (hydroxypropylcellulose) (HPC)",1 of 10
same,survivor count,"T/C endpoint: median survival time, dose: 2048.0 mg/kg/injection, schedule: Q04DX003 (ip), vehicle: Klucel (hydroxypropylcellulose) (HPC)",5 of 10
Cl/C=C(\Cl)CCl,survivor count,"T/C endpoint: mean survival time, dose: 200.0 mg/kg/injection, schedule: Q01DX009 (ip), vehicle: saline with Tween-80",5 of 6
same,survivor count,"T/C endpoint: mean survival time, dose: 400.0 mg/kg/injection, schedule: Q01DX009 (ip), vehicle: saline with Tween-80",2 of 6
O=C(OC1COC(O)C(OC(=O)c2ccccc2)C1OC(=O)c1ccccc1)c1ccccc1 (stereo not given),survivor count,[5],3 of 3
